PubChem BioAssay AID1259424 | University of Nebraska Medical Center – 2018
This is a random part of about 14,000 reagents. 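Higher correlation or smaller distance means closer resemblance to KSR1 loss; control wells, including KSR1 knockdowns, recur on many plates.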 Further read-outs or replicates are left out here. No sequences are given here. Not given: the time to read-out.

Screen: 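Find knockdowns that reproduce the expression shifts seen after KSR1 loss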 (primary screen)
System: human HCT116 colon cancer cells
Knock-down reagent: siRNA pool against human genes, 50 nM
Read-out: 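Log2 levels of six mRNAs (branched-DNA multiplex), adjusted by two reference genes and the non-targeting median, then scored against the average KSR1 knockdown pattern as Pearson r and euclidean distance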
Reading the numbers: mean correlation with KSR1 profile: higher = expression change more like KSR1 knockdown

TRIM49 (GeneID 57093) scored mean correlation with KSR1 profile -0.0661.
Knock-down of APOM (GeneID 55937) gave: mean correlation with KSR1 profile 0.391.
With knock-down of CEP350 (GeneID 9857), the screen gave mean correlation with KSR1 profile -0.486.
Silencing of TRAF3 (GeneID 7187) resulted in: mean correlation with KSR1 profile 0.443.
Depletion of MARCHF1 (GeneID 55016) resulted in: mean correlation with KSR1 profile -0.744.

Already shown: entries from further up.
TRIM49 (GeneID 57093): mean correlation with KSR1 profile = -0.0661
APOM (GeneID 55937): mean correlation with KSR1 profile = 0.391

The listing continues.
For SDC3 (GeneID 9672), the entry reads mean correlation with KSR1 profile -0.288.
For CETP (GeneID 1071) the deposit lists mean correlation with KSR1 profile -0.0845.
TSPYL2 (GeneID 64061) gave mean correlation with KSR1 profile -0.471.
Depletion of FOXP2 (GeneID 93986) gave: mean correlation with KSR1 profile 0.531.
AMY2B (GeneID 280) gave mean correlation with KSR1 profile -0.39.
Against COG8 (GeneID 84342), the entry reads mean correlation with KSR1 profile 0.808.
Against MTERF2 (GeneID 80298), the values are mean correlation with KSR1 profile 0.772.
